Source: the supplement of paper PMC12067093, “Discovery and optimisation of a covalent ligand for TRIM25 and its application to targeted protein ubiquitination” (Chemical Science, 2025)
The list shows a part of the results.

Compound: Cc1cc(ccc1-c1ccccc1)C(=O)N1CCCN(CC1)C(=O)CCl [compound 10]
Test: probe-labelled cysteine peptide fold change vs DMSO (competition) (log2 fold change); higher = less target engagement (more negative = stronger competition)
Conditions: THP-1, incubation time: 4 h
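Note: competitive profiling in live THP-1 cells: cysteine peptides tagged with an iodoacetamide desthiobiotin (IA-DTB) probe, intensity after compound treatment relative to DMSO-treated cells.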

Target	probe-labelled cysteine peptide fold change (10 µM)	probe-labelled cysteine peptide fold change (50 µM)
RAD1_O60671_215_DSDLMEAFHCNQTQVNR (UniProt O60671)	0.107	0.108
RAB11FIP5_Q9BXF6_337_SSLCVNGSHIYNEEPQGPVR (UniProt Q9BXF6)	-0.249	-0.229
RAB3GAP1_Q15042_181_MYVGECQGPGVR (UniProt Q15042)	0.0634	0.19
PXK_Q7Z7A4_204_LLPSCLHPYIYR (UniProt Q7Z7A4)	-0.001	0.213
RAD50_Q92878_48_TTIIECLK (UniProt Q92878)	0.0101	-0.0339
RAB4B_P61018_23_SCLLHQFIENK (UniProt P61018)	-0.182	-0.0236
RAB43_Q86YS6_157_SDLSELREVSLAEAQSLAEHYDILCAIETSAK (UniProt Q86YS6)	-0.188	-0.247
RAB32_Q13637_162_DSSQSPSQVDQFCK (UniProt Q13637)	0.0381	0.224
RAB3D_O95716_137_TYSWDNAQVILVGNKCDLEDER (UniProt O95716)	-0.156	-0.412
RAD50_Q92878_133_CAEIDR (UniProt Q92878)	-0.158	-0.0778
RAB3GAP2_Q9H2M9_792+793_DILDKPQSICCLHTMLSLLSK (UniProt Q9H2M9)	-0.317	-0.413
RABGAP1_Q9Y3P9_155_LTYLGCASVNAPR (UniProt Q9Y3P9)	0.0506	-0.0968
PUS7_Q96PZ0_319_CLMNFK (UniProt Q96PZ0)	-0.0229	-0.239
RAB29_O14966_127_CDLSPWAVSR (UniProt O14966)	-0.0495	0.0455
RABGGTA_Q92696_487_CLEVLQASDNAIESLDGVTNLPR (UniProt Q92696)	-0.111	-0.0347
RAD23A_P54725_344_ALGFPESLVIQAYFACEK (UniProt P54725)	0.183	0.223
RAB7A_P51149_83+84_GADCCVLVFDVTAPNTFK (UniProt P51149)	0.0125	0.271
PXK_Q7Z7A4_112_GLQNYLNVITTNHILSNCELVKK (UniProt Q7Z7A4)	0.00275	-0.513
QSER1_Q2KHR3_1188_TFCPPPLPK (UniProt Q2KHR3)	-0.0924	0.0277
QSOX1_O00391_165_LIDALESHHDTWPPACPPLEPAKLEEIDGFFAR (UniProt O00391)	-0.103	-0.409
PWP1_Q13610_439_MGVLFCSSCCPDLPFIYAFGGQK (UniProt Q13610)	-0.0362	0.0392
RACK1_P63244_249_YWLCAATGPSIK (UniProt P63244)	0.207	0.0731
RACK1_P63244_249_HLYTLDGGDIINALCFSPNRYWLCAATGPSIK (UniProt P63244)	-0.203	-0.584
PXN_P49023_361_GVCGACK (UniProt P49023)	-0.0164	-0.209
QDPR_P09417_161_GAVHQLCQSLAGK (UniProt P09417)	0.0328	0.165
RABEPK_Q7Z6M1_222_FYDDLHCIDISDMK (UniProt Q7Z6M1)	0.0511	-0.0546

Target	probe-labelled cysteine peptide fold change (10 µM)	probe-labelled cysteine peptide fold change (50 µM)
RACGAP1_Q9H0H5_93_AEADCEK (UniProt Q9H0H5)	0.0715	0.13
RABGAP1_Q9Y3P9_476_KNNTDTLYEVVCLESESERER (UniProt Q9Y3P9)	-0.254	-0.296
PWP1_Q13610_9_QVTCVAWVR (UniProt Q13610)	-0.0204	-0.136
PUS7L_Q9H0K6_15_FSSLCFFNDHVGFHGTIK (UniProt Q9H0K6)	0.109	0.05
RAB21_Q9UL25_126+128_MLGNEICLCIVGNK (UniProt Q9UL25)	-0.445	-0.353
RACGAP1_Q9H0H5_327_VVSHPECR (UniProt Q9H0H5)	0.0118	-0.0695
PYCR1_P32322_262_SLLINAVEASCIR (UniProt P32322)	0.0279	0.0718
RABGAP1_Q9Y3P9_346_CFGLLLSPGK (UniProt Q9Y3P9)	0.0601	-0.112
PYGB_P11216_496_WLLLCNPGLADTIVEK (UniProt P11216)	-0.0209	0.144
PWP1_Q13610_154_DTEQYEREDFLIKPSDNLIVCGR (UniProt Q13610)	0.0705	-0.671
RACK1_P63244_207_TNHIGHTGYLNTVTVSPDGSLCASGGKDGQAMLWDLNEGK (UniProt P63244)	-0.303	-0.656
PYGB_P11216_437_MSVIEEGDCKR (UniProt P11216)	-0.0823	-0.244
RAB22A_Q9UL26_120_CDLIDVR (UniProt Q9UL26)	-0.0251	0.0894
RAD54B_Q9Y620_521_AAELTCLTGLFILR (UniProt Q9Y620)	0.0559	-0.603
QTRT2_Q9H974_263_LISGVSRPDEVLECIER (UniProt Q9H974)	0.0125	0.174
QRSL1_Q9H0R6_203_NPAAHCGLVGFKPSYGLVSR (UniProt Q9H0R6)	0.0538	-0.0148
PYGL_P06737_496_WLLLCNPGLAELIAEK (UniProt P06737)	0.0971	0.169
QARS_P47897_111_ECGVGVIVTPEQIEEAVEAAINR (UniProt P47897)	0.0136	0.0753
RAB35_Q15286_110_WLHEINQNCDDVCR (UniProt Q15286)	0.00387	-0.0779
RABGAP1_Q9Y3P9_582_GEVWQLLAGCHNNDHLVEK (UniProt Q9Y3P9)	-0.137	0.0214
QRICH1_Q2TAL8_713_CPQSVK (UniProt Q2TAL8)	-0.152	-0.258
RAD50_Q92878_325_KLVDCHR (UniProt Q92878)	0.197	0.0158
RAB44_Q7Z6P3_950_MDCEEER (UniProt Q7Z6P3)	0.189	0.236
RAB8A_P61006_123_CDVNDK (UniProt P61006)	-0.202	0.0957
RABGAP1_Q9Y3P9_941_QICSQLSER (UniProt Q9Y3P9)	-0.145	0.0919
QSER1_Q2KHR3_283_SCSTEQPLTSTK (UniProt Q2KHR3)	-0.196	-0.558

Target	probe-labelled cysteine peptide fold change (10 µM)	probe-labelled cysteine peptide fold change (50 µM)
RAC1_P63000_105_HHCPNTPIILVGTK (UniProt P63000)	0.0268	-0.0534
PXN_P49023_384+387_TWHPEHFVCTHCQEEIGSR (UniProt P49023)	0.402	-0.119
RAB3D_O95716_137_CDLEDERVVPAEDGRR (UniProt O95716)	0.0274	0.0257
RAB21_Q9UL25_177_GIEELFLDLCK (UniProt Q9UL25)	0.0941	0.191
PYCR3_Q53H96_49_NLCHFQALGCR (UniProt Q53H96)	-0.0647	-0.12
QARS_P47897_556_VGVTVAQTTMEPHLLEACVR (UniProt P47897)	0.0226	0.133
RAD50_Q92878_157_AVLNNVIFCHQEDSNWPLSEGK (UniProt Q92878)	0.145	0.125
PXN_P49023_523_ECFTPFVNGSFFEHDGQPYCEVHYHER (UniProt P49023)	0.032	0.12
RABGGTA_Q92696_302_NRPSHVWLCDLPAASLNDQLPQHTFR (UniProt Q92696)	0.0604	-0.00746
RABIF_P47224_97_FLVCADCEIGPIGWHCLDDK (UniProt P47224)	0.11	0.0401
QDPR_P09417_85_VDAILCVAGGWAGGNAK (UniProt P09417)	0.0495	0.111
RAB3GAP1_Q15042_873_FVSCLLEQPEVLVTGAGR (UniProt Q15042)	-0.0929	0.347
RAD18_Q9NS91_223_HLDSCLSR (UniProt Q9NS91)	-0.0378	-0.0831
PWP2_Q15269_630_FVCIYHVR (UniProt Q15269)	-0.0238	0.592
RAB3GAP2_Q9H2M9_391+395_RHGESICLSPCNTLAAVTDDFGR (UniProt Q9H2M9)	-0.163	-0.027
QARS_P47897_111_SHPLDPIDTVDFERECGVGVIVTPEQIEEAVEAAINR (UniProt P47897)	-0.047	0.015
RAD51B_O15315_185_ELTCDEVLQR (UniProt O15315)	0.00647	-0.0561
RAB18_Q9NP72_110_LDNWLNELETYCTR (UniProt Q9NP72)	0.0295	0.189
QSOX1_O00391_393_KVNWIGCQGSEPHFR (UniProt O00391)	-0.035	-0.0766
RAD21_O60216_392_CLTPLVPEDLRK (UniProt O60216)	0.0787	0.103
R3HCC1_Q9Y3T6_362_IQWVDDTHALGIFPCLASAAEALTR (UniProt Q9Y3T6+R3HCC1)	-0.281	-0.617
QSOX2_Q6ZRP7_539_LQWPTPDLCPACHEEIK (UniProt Q6ZRP7)	0.01	-0.0211
RAB3IL1_Q8TBN0_97_LKDEECER (UniProt Q8TBN0)	-0.068	-0.539
RABGAP1_Q9Y3P9_230_GHDGTPESDCFAFTESHYNAELFR (UniProt Q9Y3P9)	-0.209	-0.0249
PYCR3_Q53H96_49+56_NLCHFQALGCR (UniProt Q53H96)	-0.0782	-0.183
RABGGTA_Q92696_457_DLTVLCHLEQLLLVTHLDLSHNR (UniProt Q92696)	0.288	0.244
